In article PMC5996148:
“And” between values parts separate entries of the source, which are not always exact repeats. Identical values can stand only once. This is one part of the list.

Legend:
Assay in all cases: protein microarray (ProtoArray v5.0), streptavidin-Alexa Fluor 647
Conditions in all cases: 3'-biotin; 20 mM Tris (pH 7.5), 5 mM MgCl2, 100 mM KCl, 0.1% Tween-20, A/T-rich and random oligonucleotide blockers; temperature not stated; high values mean tight binding
[1] = tested on: Protein fuzzy homolog (human)
[2] = tested on: Protein phosphatase 1 regulatory subunit 16A (human)
[3] = tested on: Protein phosphatase 1L (human)
[4] = tested on: Protein phosphatase Slingshot homolog 3 (human)
Protein reprimo (human) = tested on: Protein reprimo (human)
Protein ripply1 (human) = tested on: Protein ripply1 (human)
Protein shisa-4 (human) = tested on: Protein shisa-4 (human)
[5] = tested on: Protein transport protein Sec61 subunit alpha isoform 1 (human)
[6] = tested on: Protein tyrosine kinase 2 beta (human)
[7] = tested on: Protein tyrosine phosphatase receptor type C-associated protein (human)
[8] = tested on: Protein tyrosine phosphatase-like protein PTPLAD1 (human)
[9] = tested on: Purine nucleoside phosphorylase (human)
[10] = tested on: Putative ATP-dependent Clp protease proteolytic subunit, mitochondrial (human)
[11] = tested on: Putative DAP-2 like protein C8orf68 (human)
[12] = tested on: Putative adenylate kinase 7 (human)
[13] = tested on: Putative elongation factor 1-delta-like protein (human)
[14] = tested on: Putative protein phosphatase inhibitor 2-like protein 3 (human)
[15] = tested on: Putative uncharacterized protein C3orf56 (human)
[16] = tested on: Putative uncharacterized protein FLJ45256 (human)
[17] = tested on: Putative zinc-alpha-2-glycoprotein-like 1 (human)

GGGAGGCTGAGGCAGG [G4-1 biotinylated (PQS2)]
binding signal [1]: -0.329 z-score | binding signal [2]: -0.322 z-score | binding signal [3]: -0.311 z-score | binding signal [4]: -0.327 z-score and -0.326 z-score and -0.272 z-score | binding signal (Protein reprimo (human)): -0.332 z-score | binding signal (Protein ripply1 (human)): -0.284 z-score | binding signal (Protein shisa-4 (human)): -0.338 z-score | binding signal [5]: -0.295 z-score | binding signal [6]: -0.335 z-score | binding signal [7]: -0.283 z-score | binding signal [8]: -0.282 z-score | binding signal [9]: -0.348 z-score | binding signal [10]: -0.346 z-score | binding signal [11]: -0.24 z-score | binding signal [12]: -0.365 z-score | binding signal [13]: -0.337 z-score | binding signal [14]: -0.355 z-score | binding signal [15]: -0.283 z-score | binding signal [16]: -0.325 z-score | binding signal [17]: -0.285 z-score
